Reference: article doi:10.1101/2025.10.24.684453
Results are given in words; binding and its absence hold for the method and conditions named. In cells and extracts the contact can be indirect. Some results given as binding are weak or reduced against the parent protein; the word gives no strength.

By UniProt entry, the sequences of proteins in these tests, tags left out.
UniProt P12004: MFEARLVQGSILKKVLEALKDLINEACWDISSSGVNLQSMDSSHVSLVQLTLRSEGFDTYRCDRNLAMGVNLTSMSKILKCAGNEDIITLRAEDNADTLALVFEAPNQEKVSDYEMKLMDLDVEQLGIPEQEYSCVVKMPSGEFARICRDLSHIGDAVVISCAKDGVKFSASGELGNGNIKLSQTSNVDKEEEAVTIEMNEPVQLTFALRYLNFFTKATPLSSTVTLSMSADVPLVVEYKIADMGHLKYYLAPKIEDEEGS

Biological target: Flag-PCNA (UniProt P12004)
Assay: co-IP; Flag-PCNA precipitated from lysate of transfected cells with anti-FLAG M2 agarose beads (4 °C, 4 h; 20 mM Tris-HCl pH 7.5, 150 mM NaCl, 0.5% NP-40 lysis buffer), eluted with 3x Flag peptide, immunoblot for XPF; cells treated with or without 10 μM FEN1 inhibitor LNT-1 for 16 h (more XPF with the inhibitor)

- binding: binds
B1: XPF (enzyme, UniProt Q92889 1-916)
chain: MESGQPARRIAMAPLLEYERQLVLELLDTDGLVVCARGLGADRLLYHFLQLHCHPACLVLVLNTQPAEEEYFINQLKIEGVEHLPRRVTNEITSNSRYEVYTQGGVIFATSRILVVDFLTDRIPSDLITGILVYRAHRIIESCQEAFILRLFRQKNKRGFIKAFTDNAVAFDTGFCHVERVMRNLFVRKLYLWPRFHVAVNSFLEQHKPEVVEIHVSMTPTMLAIQTAILDILNACLKELKCHNPSLEVEDLSLENAIGKPFDKTIRHYLDPLWHQLGAKTKSLVQDLKILRTLLQYLSQYDCVTFLNLLESLRATEKAFGQNSGWLFLDSSTSMFINARARVYHLPDAKMSKKEKISEKMEIKEGEETKKELVLESNPKWEALTEVLKEIEAENKESEALGGPGQVLICASDDRTCSQLRDYITLGAEAFLLRLYRKTFEKDSKAEEVWMKFRKEDSSKRIRKSHKRPKDPQNKERASTKERTLKKKKRKLTLTQMVGKPEELEEEGDVEEGYRREISSSPESCPEEIKHEEFDVNLSSDAAFGILKEPLTIIHPLLGCSDPYALTRVLHEVEPRYVVLYDAELTFVRQLEIYRASRPGKPLRVYFLIYGGSTEEQRYLTALRKEKEAFEKLIREKASMVVPEEREGRDETNLDLVRGTASADVSTDTRKAGGQEQNGTQQSIVVDMREFRSELPSLIHRRGIDIEPVTLEVGDYILTPEMCVERKSISDLIGSLNNGRLYSQCISMSRYYKRPVLLIEFDPSKPFSLTSRGALFQEISSNDISSKLTLLTLHFPRLRILWCPSPHATAELFEELKQSKPQPDAATALAITADSETLPESEKYNPGPQDFLLKMPGVNAKNCRSLMHHVKNIAELAALSQDELTSILGNAANAKQLYDFIHTSFAEVVSKGKGKK
